Measured data: PubChem BioAssay AID652243 (Drosophila RNAi Screening Center, 2013)

Assay: 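Knock-downs that decrease or increase androgen receptor reporter signal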 (primary screen)
System: Drosophila S2R+ cells
Reagents: long dsRNA against Drosophila genes
Duration: 72 h (48 h, then 24 h hormone)
Challenge: synthetic androgen R1881 at 10 nM for 24 h
Detection: 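Per-well raw luminescence of the androgen-driven firefly reporter and of the Renilla control, two replicates each, without normalisation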
Direction: firefly reporter light: higher = more light from androgen-responsive reporter; Renilla control light: higher = more constitutive control signal (cell number, transfection)
Active means: 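Hit when the log firefly-to-Renilla ratio dropped or increased by a fixed fold versus the mean of GFP or LacZ controls across duplicate plates; lowering cut given as 1.5 and as 3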
Calls: active = hit: reporter lowered or raised; inactive = no hit
The screen tested about 24,000 reagents; shown is a random part of those with a known target gene and a result. In the full data, 246 (1%) got an active call. 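Plates not normalised; calls are printed but the firefly/Renilla ratio behind them is not deposited; fold cut for lowering reported inconsistently.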 Raw values vary from plate to plate and are shown uncorrected. Names joined by + are all predicted targets of the reagent. The record does not give: the amount of reagent.

predicted target | dsRNA | firefly reporter light, replicate 1 | firefly reporter light, replicate 2 | Renilla control light, replicate 1 | Renilla control light, replicate 2 | Outcome
Cyp4ac1 (GeneID 33754) | DRSC03302 | 6.29e5 | 6.86e5 | 1.65e6 | 2.44e6 | inactive
CG34235 + CG30058 + CG34312 | DRSC22142 | 7.17e5 | 8.58e5 | 1.65e6 | 1.75e6 | inactive
CG34235 + CG30058 + CG34312 | DRSC38871 | 1.15e6 | 8.41e5 | 2.20e6 | 1.78e6 | inactive
CCDC151 (GeneID 39345) | DRSC10131 | 1.08e5 | 1.09e5 | 1.87e6 | 1.56e6 | inactive
CCDC151 (GeneID 39345) | DRSC27319 | 2.92e5 | 2.87e5 | 7.47e5 | 7.19e5 | inactive
CG14933 + CG42486 | DRSC02415 | 3.18e5 | 2.12e5 | 2.38e6 | 1.94e6 | inactive
CG42232 (GeneID 7354465) | DRSC15018 | 80329 | 53060 | 2.92e5 | 2.62e5 | inactive
CG42232 (GeneID 7354465) | DRSC15019 | 79704 | 82443 | 7.28e5 | 7.24e5 | inactive
CG42232 (GeneID 7354465) | DRSC29868 | 3.81e5 | 5.30e5 | 7.29e5 | 8.84e5 | inactive
ppk28 (GeneID 32671) | DRSC19919 | 3.25e5 | 1.88e5 | 2.40e6 | 1.22e6 | inactive
tkv (GeneID 33753) | DRSC03623 | 9.32e5 | 1.23e6 | 1.54e6 | 2.29e6 | inactive
tkv (GeneID 33753) | DRSC22606 | 6.57e5 | 6.65e5 | 1.39e6 | 1.47e6 | inactive
tkv (GeneID 33753) | DRSC25957 | 2.64e5 | 3.93e5 | 5.95e5 | 7.11e5 | inactive
BG642167 (GeneID 4379865) | DRSC38707 | 1.11e6 | 9.67e5 | 1.78e6 | 2.18e6 | inactive
CG1354 (GeneID 31914) | DRSC17902 | 2.30e5 | 3.11e5 | 2.11e6 | 1.94e6 | inactive
Tollo (GeneID 44497) | DRSC11305 | 1.98e5 | 1.84e5 | 1.70e6 | 1.47e6 | inactive
CG11307 (GeneID 40400) | DRSC11648 | 5.31e5 | 6.83e5 | 1.83e6 | 2.20e6 | inactive
CG11307 (GeneID 40400) | DRSC26602 | 5.47e5 | 4.93e5 | 6.10e5 | 6.49e5 | inactive
Tfb5 + CG31917 | DRSC28677 | 3.19e5 | 4.60e5 | 1.07e6 | 9.87e5 | inactive
Sr-CIII (GeneID 44382) | DRSC22262 | 7.40e5 | 8.08e5 | 2.34e6 | 1.82e6 | inactive
CG15549 (GeneID 43665) | DRSC15087 | 2.54e5 | 2.47e5 | 1.71e6 | 3.37e6 | inactive
Cyp1 (GeneID 32595) | DRSC20234 | 99017 | 85197 | 3.96e5 | 5.37e5 | inactive
Cyp1 (GeneID 32595) | DRSC27284 | 6.13e5 | 5.70e5 | 7.11e5 | 7.36e5 | inactive
Lsm11 (GeneID 36013) | DRSC06238 | 2.54e5 | 2.01e5 | 1.61e6 | 1.44e6 | inactive
CG4390 (GeneID 42396) | DRSC15572 | 65909 | 82202 | 4.29e5 | 6.32e5 | inactive
CG4390 (GeneID 42396) | DRSC26410 | 2.94e5 | 2.96e5 | 6.51e5 | 5.85e5 | inactive
CG8907 (GeneID 42050) | DRSC16453 | 29510 | 64191 | 3.47e5 | 4.84e5 | inactive
CG8907 (GeneID 42050) | DRSC27500 | 2.38e5 | 2.48e5 | 6.16e5 | 8.41e5 | inactive
Glut3 (GeneID 42036) | DRSC16681 | 88605 | 1.14e5 | 1.75e6 | 2.06e6 | inactive
Glut3 (GeneID 42036) | DRSC26249 | 3.66e5 | 3.40e5 | 6.16e5 | 7.03e5 | inactive
ppk16 (GeneID 3885612) | DRSC02736 | 4.61e5 | 5.18e5 | 1.38e6 | 1.21e6 | inactive
CG42674 (GeneID 40205) | DRSC10066 | 3.98e5 | 2.14e5 | 2.90e6 | 3.08e6 | inactive
CG42674 (GeneID 40205) | DRSC10067 | 2.70e5 | 2.42e5 | 3.57e6 | 3.36e6 | inactive
CG42674 (GeneID 40205) | DRSC10811 | 3.20e5 | 2.74e5 | 3.18e6 | 3.25e6 | inactive
CG42674 (GeneID 40205) | DRSC25036 | 7.21e5 | 6.34e5 | 9.00e5 | 7.08e5 | inactive
CG42674 (GeneID 40205) | DRSC29701 | 3.26e5 | 3.65e5 | 1.05e6 | 1.20e6 | inactive
CG11889 + CG11891 | DRSC14426 | 1.49e5 | 2.36e5 | 2.23e6 | 2.52e6 | inactive
CG11889 + CG11891 | DRSC14427 | 1.57e5 | 2.02e5 | 2.51e6 | 2.48e6 | inactive
CG11889 + CG11891 | DRSC25728 | 6.06e5 | 6.00e5 | 7.37e5 | 8.74e5 | inactive
sncRNA:430e + His2A:CG33859 + His2A:CG33817 + 42 more | DRSC25850 | 5.02e5 | 6.10e5 | 1.23e5 | 1.52e5 | inactive
CG34249 (retired record) (GeneID 5740397) | DRSC38837 | 8.75e5 | 9.07e5 | 2.18e6 | 2.14e6 | inactive
CG2003 (GeneID 43761) | DRSC15411 | 1.54e5 | 1.39e5 | 1.87e6 | 2.66e6 | inactive
CG3566 (GeneID 31562) | DRSC18311 | 3.12e5 | 3.37e5 | 2.44e6 | 1.71e6 | inactive
CG3566 (GeneID 31562) | DRSC29311 | 5.38e5 | 4.30e5 | 1.02e6 | 9.06e5 | inactive
Saysd1 (GeneID 43029) | DRSC14664 | 1.46e5 | 2.02e5 | 1.94e6 | 2.33e6 | inactive
Gga (GeneID 31902) | DRSC18260 | 86106 | 91375 | 5.53e5 | 7.50e5 | inactive
Gga (GeneID 31902) | DRSC27761 | 2.72e5 | 2.28e5 | 3.95e5 | 7.48e5 | inactive
CG14341 (GeneID 33301) | DRSC00371 | 88565 | 1.05e5 | 6.00e5 | 8.38e5 | inactive
CCKLR-17D1 (GeneID 32860) | DRSC20011 | 4.25e5 | 3.54e5 | 1.72e6 | 9.01e5 | inactive
CCKLR-17D1 (GeneID 32860) | DRSC20012 | 1.35e5 | 59587 | 5.84e5 | 2.44e5 | inactive
CCKLR-17D1 (GeneID 32860) | DRSC28081 | 4.94e5 | 3.34e5 | 1.78e6 | 1.49e6 | inactive
CG34283 (GeneID 5740817) | DRSC13313 | 5.72e5 | 6.96e5 | 2.41e6 | 3.61e6 | inactive
obst-H (GeneID 39681) | DRSC10935 | 3.00e5 | 2.54e5 | 3.69e6 | 3.01e6 | inactive
obst-H (GeneID 39681) | DRSC10940 | 3.19e5 | 2.83e5 | 2.07e6 | 2.38e6 | inactive
Atg18a (GeneID 38913) | DRSC10943 | 1.03e6 | 7.17e5 | 9.24e5 | 1.25e6 | inactive
Ir60a (GeneID 37881) | DRSC04212 | 3.34e5 | 2.29e5 | 2.02e6 | 1.63e6 | inactive
CR41604 (retired record) (GeneID 5740682) | DRSC38594 | 1.01e6 | 8.16e5 | 1.74e6 | 2.24e6 | inactive
CG14756 (GeneID 35798) | DRSC06491 | 1.58e5 | 1.40e5 | 1.02e6 | 8.08e5 | inactive
CG14756 (GeneID 35798) | DRSC24808 | 1.06e6 | 1.37e6 | 8.27e5 | 8.68e5 | inactive
Tbc1d22 (GeneID 42498) | DRSC15867 | 85258 | 62163 | 5.99e5 | 6.59e5 | inactive
gammaTub37C (GeneID 35199) | DRSC03535 | 9.08e5 | 9.29e5 | 1.29e6 | 1.20e6 | inactive
gammaTub37C (GeneID 35199) | DRSC25835 | 4.15e5 | 5.76e5 | 9.94e5 | 8.32e5 | inactive
CG12728 (GeneID 31526) | DRSC17883 | 1.02e5 | 1.10e5 | 7.81e5 | 6.34e5 | inactive
PrBP (GeneID 34196) | DRSC03189 | 1.96e5 | 1.38e5 | 1.56e6 | 1.60e6 | inactive
PrBP (GeneID 34196) | DRSC25862 | 2.59e5 | 3.03e5 | 7.08e5 | 5.45e5 | inactive
CG10041 (GeneID 41496) | DRSC14179 | 1.93e5 | 2.22e5 | 2.96e6 | 3.47e6 | inactive
CG10041 (GeneID 41496) | DRSC29505 | 5.48e5 | 6.40e5 | 7.93e5 | 7.93e5 | inactive
Ing3 (GeneID 32853) | DRSC20002 | 5.36e5 | 3.33e5 | 2.90e6 | 2.38e6 | inactive
Ing3 (GeneID 32853) | DRSC27959 | 7.49e5 | 7.45e5 | 2.63e6 | 1.54e6 | inactive
psidin (GeneID 42389) | DRSC15660 | 2.47e5 | 2.32e5 | 3.45e6 | 2.63e6 | inactive
Dhfr (GeneID 42003) | DRSC16646 | 2.37e5 | 1.91e5 | 2.73e6 | 2.71e6 | inactive
Dhfr (GeneID 42003) | DRSC29019 | 7.38e5 | 5.36e5 | 1.18e6 | 1.09e6 | inactive
Polr1F (GeneID 33963) | DRSC02278 | 9.64e5 | 1.06e6 | 1.98e6 | 1.98e6 | inactive
Polr1F (GeneID 33963) | DRSC28047 | 3.93e5 | 6.12e5 | 1.82e6 | 2.00e6 | inactive
